# Laboratory results taken from PubChem BioAssay (NCATS).
# Values joined by “and” are separate entries in the source; they are usually repeats but may differ in a detail not shown here. Identical values can stand only once. This list was built around the results that the source calls inconclusive (neither active nor inactive); the mix of calls is not that of the screen. For part of these data: Where the call is inconclusive, the potency comes from a doubtful curve fit. Active and inactive are the calls of the source. Unless noted, the call rests on the fitted dose curve; in most records, active means well fitted curve in the direction sought with a large enough effect; inconclusive means small, poorly fitted or top-dose-only effect, or another doubt; inactive means no such curve, though single readings can be large; an effect the other way counts as inactive or inconclusive.
# Tests used:
# [1] = Quantitative High-Throughput drug screen in 47 multiple myeloma cell lines against the NCATS MIPE library collection: UTMC2_PLB cell viability assay (AID 1919868); settings: CellTiter-Glo ATP luminescence, 48 h; viability (% of DMSO control): at 45.8 µM (top of the series); further: nearly all actives have a fitted effect of over 55% in size; further: potency means the concentration at half of the fitted maximal effect
# Outline: (§1)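 Viability after 48 h drug exposure was measured as ATP-dependent luminescence. Cells, 500 per well, sat at 37 °C under 5% CO2; DMSO wells set 100%, media-only wells 0%.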
# [2] = Quantitative High-Throughput drug screen in 47 multiple myeloma cell lines against the NCATS MIPE library collection: PE2_PLB cell viability assay (AID 1919869); further: nearly all actives have a fitted effect of over 35% in size; further: potency means the concentration at half of the fitted maximal effect
# Outline: as §1
# [3] = Quantitative High-Throughput drug screen in 47 multiple myeloma cell lines against the NCATS MIPE library collection: PCM6_Riken cell viability assay (AID 1919870); settings: CellTiter-Glo ATP, 48 h; viability (% of control): at 45.8 µM (top of the series); further: nearly all actives have a fitted effect of over 30% in size; further: potency means the concentration at half of the fitted maximal effect
# Outline: as §1
# [4] = Quantitative High-Throughput drug screen in 47 multiple myeloma cell lines against the NCATS MIPE library collection: KMS28BM_JCRB cell viability assay (AID 1919874); further: nearly all actives have a fitted effect of over 35% in size; further: potency means the concentration at half of the fitted maximal effect
# Outline: as §1
# KB-3-1 = test: Cytotoxic Profiling of Annotated Libraries Using Quantitative High-Throughput Screening (AID 1296008); settings: Five cell lines viability, CellTiter-Glo ATP luminescence, 48-72 h; max response: active compounds read low; further: nearly all actives have a fitted effect of over 60% in size; further: potency means the concentration at half of the fitted maximal effect; on max response: on the % scale 0 is the no-effect control and ±100 the full control effect
# Outline: (§2)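 Cells exposed to compounds for 48 or 72 hr at 37 degrees Celsius. Viability read as ATP-coupled luminescence with CellTiter-Glo after 10 min at room temperature.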
# [5] = Quantitative High-Throughput drug screen in 47 multiple myeloma cell lines against the NCATS MIPE library collection: RPMI8226_ATCC cell viability assay (AID 1919871); further: nearly all actives have a fitted effect of over 30% in size; further: potency means the concentration at half of the fitted maximal effect
# Outline: as §1
# NIH3T3 = test: Cytotoxic Profiling of Annotated Libraries Using Quantitative High-Throughput Screening (AID 1296008); settings: Five cell lines viability, CellTiter-Glo ATP luminescence, 48-72 h; max response: active compounds read low; further: nearly all actives have a fitted effect of over 60% in size; further: potency means the concentration at half of the fitted maximal effect; on max response: on the % scale 0 is the no-effect control and ±100 the full control effect
# Outline: as §2
# [6] = Quantitative High-Throughput drug screen in 47 multiple myeloma cell lines against the NCATS MIPE library collection: KMS11_JCRBsus cell viability assay (AID 1919873); further: nearly all actives have a fitted effect of over 50% in size; further: potency means the concentration at half of the fitted maximal effect
# Outline: as §1
# MCC-13 = test: qHTS assay to identify novel small-molecules to repurpose for Merkel cell carcinoma treatment (AID 1296009); settings: MCC and control cell lines, CellTiter-Glo viability, 72 h; series mostly up to 46 µM; further: on the % scale 0 is the no-effect control and ±100 the full control effect; nearly all actives have a fitted effect of over 60% in size
# Outline: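 Cells were incubated with compound for 72 hr at 37 degree celsius before CellTiter-Glo addition. Luminescence was normalized with no-cell wells as full cytotoxicity and DMSO as baseline.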
# [7] = qHTS for identification of novel therapeutic agents for treatment of microphthalmiaassociated transcription factor (MiT) renal cell carcinoma (RCC) (AID 1963991; calls by dose curve; further: potency means the concentration at half of the fitted maximal effect); settings: TFE3-RCC UOK109 viability, CellTiter-Glo, 48 h; active = Z-AUC below -0.8 in all three lines
# Outline: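 Viability of three TFE3-fusion renal carcinoma lines measured by CellTiter-Glo after 48 h treatment with each of 1912 compounds at 11 concentrations. Responses scaled between DMSO (100%) and empty wells (0%) before curve fitting.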
# [8] = Quantitative High-Throughput drug screen in 47 multiple myeloma cell lines against the NCATS MIPE library collection: OPM2_DSMZ cell viability assay (AID 1919872); further: nearly all actives have a fitted effect of over 30% in size; further: potency means the concentration at half of the fitted maximal effect
# Outline: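 Steps: seed 500 cells per well; pin-transfer MIPE 4.0 library; incubate 48 h at 37C, 5% CO2, humidified; add CellTiter-Glo, 5 min room temperature; read luminescence.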
# HaCat = test: Cytotoxic Profiling of Annotated Libraries Using Quantitative High-Throughput Screening (AID 1296008); settings: Five cell lines viability, CellTiter-Glo ATP luminescence, 48-72 h; max response: active compounds read low; further: nearly all actives have a fitted effect of over 60% in size; further: potency means the concentration at half of the fitted maximal effect; on max response: on the % scale 0 is the no-effect control and ±100 the full control effect
# Outline: as §2
structure (smiles),measurement,setting,value
COc1cc(C)c(C=CC(C)=CC=CC(C)=CC(=O)O)c(C)c1C,Potency,[1],"inconclusive: 0.0023 µM [rising, full curve, poor fit]"
same,Potency,[2],"inconclusive: 10.5 µM [cytotoxic, partial curve, poor fit]"
same,Potency,[3],"inconclusive: 2.64 µM [cytotoxic, full curve, poor fit]"
same,Potency,[4],inactive
same,outcome,KB-3-1,inactive
COC(=O)C[C@](O)(CCCC(C)(C)O)C(=O)O[C@@H]1C(OC)=C[C@]23CCCN2CCc2cc4c(cc2[C@H]13)OCO4,Potency,[1],"inconclusive: 0.0235 µM [cytotoxic, full curve, poor fit]"
same,Potency,[3],"inconclusive: 1.66 µM [cytotoxic, partial curve, poor fit]"
same,Potency,[5],inactive
same,Potency,KB-3-1,"inconclusive: 0.0461 µM [inhibitor, full curve]"
N[C@@H](Cc1cc(I)c(Oc2cc(I)c(O)c(I)c2)c(I)c1)C(=O)O,Potency,[1],inconclusive: 0.001 µM
same,Potency,[2],inactive
same,Potency,[3],inactive
same,Potency,[5],inactive
same,Potency,NIH3T3,"inconclusive: 20.2 µM [inhibitor, single point]"
CN[C@@H]1[C@@H](O)[C@@H](O[C@@H]2[C@@H](O)[C@H](O[C@H]3O[C@H](CN)[C@@H](O)[C@H](O)[C@@H]3O)[C@@H](N)C[C@@H]2NC(=O)[C@@H](O)CN)OC[C@]1(C)O,Potency,[2],inactive
same,Potency,[6],active: 7.43 µM
same,Potency,[4],"inconclusive: 9.35 µM [cytotoxic, single point]"
same,max response,KB-3-1,inactive: 1.73%
same,outcome,NIH3T3,inactive
CC(=O)OCC(=O)[C@@]12N=C(C)O[C@H]1C[C@H]1[C@@H]3CCC4=CC(=O)C=C[C@]4(C)[C@@H]3[C@@H](O)C[C@@]12C,Potency,[1],"inconclusive: 26.4 µM [cytotoxic, partial curve, poor fit]"
same,Potency,[5],active: 0.469 µM
same,Potency,[4],inactive
same,max response,NIH3T3,inactive: -3.36%
same,Potency,MCC-13,inactive
COc1nccc(-c2c(-c3ccc(F)cc3)ncn2C2CCC(O)CC2)n1 (stereo unspecified),Potency,[1],"inconclusive: 0.0019 µM [cytotoxic, full curve, poor fit]"
same,Potency,[3],"inconclusive: 2.09 µM [cytotoxic, partial curve, poor fit]"
same,Potency,[4],"inconclusive: 11.8 µM [cytotoxic, single point]"
same,Potency,[7],"inconclusive: 20.9 µM [falling, partial curve, poor fit]"
same,Potency,NIH3T3,"inconclusive: 29.6 µM [inhibitor, single point]"
same,max response,NIH3T3,inactive: -1.87%
NCCc1cnc[nH]1,Potency,[1],inactive
same,Potency,[8],"inconclusive: 0.0296 µM [rising, full curve, poor fit]"
same,Potency,[6],inactive
same,max response,KB-3-1,inactive: -8.33%
same,outcome,KB-3-1,inactive
CCOC(=O)C(C)(C)Oc1ccc(Cl)cc1,Potency,[1],"inconclusive: 0.0066 µM [cytotoxic, full curve, poor fit]"
same,Potency,[3],inactive
same,Potency,[8],inactive
same,Potency,NIH3T3,"inconclusive: 2.64 µM [inhibitor, full curve]"
same,Potency,MCC-13,inactive
O=C1CCCC(=O)C1C(=O)c1ccc(C(F)(F)F)cc1[N+](=O)[O-],Potency,[1],"inconclusive: 9.35 µM [cytotoxic, full curve, poor fit]"
same,Potency,[5],"inconclusive: 4.18 µM [cytotoxic, partial curve, poor fit]"
same,Potency,[8],"inconclusive: 0.0012 µM [cytotoxic, full curve, poor fit]"
same,Potency,[6],inactive
same,Potency,[7],"inconclusive: 29.6 µM [falling, partial curve]"
same,Potency,HaCat,"inconclusive: 8.33 µM [inhibitor, full curve]"
CN[C@@H](C)C(=O)N[C@H]1CCCC[C@H]2CC[C@@H](C(=O)N[C@@H](c3ccccc3)c3cn(CCCCc4ccc(CCCCn5cc([C@@H](NC(=O)[C@@H]6CC[C@@H]7CCCC[C@H](NC(=O)[C@H](C)NC)C(=O)N76)c6ccccc6)nn5)cc4)nn3)N2C1=O,Potency,[1],"inconclusive: 11.8 µM [cytotoxic, partial curve, poor fit]"
same,Potency,[3],"inconclusive: 5.26 µM [cytotoxic, full curve]"
same,Potency,[5],"inconclusive: 0.187 µM [cytotoxic, full curve, poor fit]"
same,Potency,[6],inactive
same,Potency,[4],"inconclusive: 7.43 µM [rising, single point]"
same,Potency,KB-3-1,"inconclusive: 33.2 µM [inhibitor, single point]"
C[C@H]1[C@H](NC(=O)C(=NOC(C)(C)C(=O)O)c2csc(N)n2)C(=O)N1S(=O)(=O)O,Potency,[1],inactive
same,Potency,[2],inactive
same,Potency,[3],inactive
same,Potency,[5],inactive
same,Potency,[6],inactive
C[C@]12CC[C@H](O)CC1=CC[C@@H]1[C@H]2CC[C@]2(C)C(c3cccnc3)=CC[C@H]12,Potency,[1],"inconclusive: 1.02 µM [cytotoxic, full curve, poor fit]"
same,Potency,[5],inactive
same,Potency,[6],"inconclusive: 0.812 µM [cytotoxic, full curve, poor fit]"
same,max response,NIH3T3,inactive: 0.502%
CCN(CC)CCOc1ccc(C(=C(Cl)c2ccccc2)c2ccccc2)cc1,Potency,[1],"inconclusive: 0.187 µM [rising, full curve, poor fit]"
same,Potency,[2],"inconclusive: 18.7 µM [cytotoxic, partial curve, poor fit]"
same,Potency,[3],"inconclusive: 14.8 µM [cytotoxic, partial curve, poor fit]"
same,Potency,[5],"inconclusive: 37.2 µM [cytotoxic, single point]"
same,Potency,[7],"inconclusive: 16.6 µM [falling, partial curve, poor fit]"
CS(=O)(=O)OCCCCOS(C)(=O)=O,Potency,[1],"inconclusive: 0.526 µM [cytotoxic, full curve, poor fit]"
same,Potency,[3],"inconclusive: 0.0059 µM [cytotoxic, full curve, poor fit]"
same,Potency,[6],inactive
same,Potency,[4],inactive
same,Potency,MCC-13,inactive
CC(C)(C)c1cc(C(=O)O)c(NC(=O)Nc2ccc3[nH]ncc3c2)s1,Potency,[1],inactive
same,Potency,[2],active: 16.6 µM
same,Potency,[3],inactive
same,Potency,[4],"inconclusive: 9.35 µM [cytotoxic, partial curve, poor fit]"
O=c1[nH]c(=O)n([C@H]2C[C@@H](O)[C@@H](CO)O2)cc1C=CBr,Potency,[1],"inconclusive: 0.264 µM [rising, full curve, poor fit]"
same,Potency,[3],inactive
same,Potency,[5],inactive
same,Potency,[7],"inconclusive: 18.7 µM [falling, partial curve, poor fit]"
same,Potency,MCC-13,inactive
NC(=O)NN=Cc1ccc([N+](=O)[O-])o1,Potency,[1],"inconclusive: 0.0743 µM [rising, full curve, poor fit]"
same,Potency,[2],"inconclusive: 29.6 µM [cytotoxic, partial curve, poor fit]"
same,Potency,[3],"inconclusive: 16.6 µM [cytotoxic, partial curve, poor fit]"
same,Potency,[5],inactive
same,Potency,[8],inactive
same,Potency,[6],inactive
same,Potency,[7],inconclusive: 23.5 µM
CC(C)NCC(O)c1ccc(NS(C)(=O)=O)cc1 (stereo unspecified),Potency,[1],inactive
same,Potency,[2],inactive
same,Potency,[3],inactive
same,Potency,[5],"inconclusive: 4.69 µM [cytotoxic, partial curve, poor fit]"
same,Potency,[6],inactive
same,Potency,[7],inconclusive: 7.43 µM
Cc1cccc(-c2[nH]ncc2-c2ccc3ncccc3n2)n1,Potency,[1],"inconclusive: 0.743 µM [rising, full curve, poor fit]"
same,Potency,[2],"inconclusive: 1.48 µM [cytotoxic, full curve, poor fit]"
same,Potency,[5],inactive
same,Potency,[6],"inconclusive: 33.2 µM [cytotoxic, single point]"
same,Potency,[4],"inconclusive: 10.5 µM [cytotoxic, partial curve, poor fit]"
same,Potency,[7],inconclusive: 0.0332 µM
CN1C2CCC1CC(OC(=O)C(CO)c1ccccc1)C2 (stereo unspecified),Potency,[1],inactive
same,Potency,[2],inactive
same,Potency,[3],inactive
CC[C@H](NC(C)C)[C@H](O)c1ccc(O)c2[nH]c(=O)ccc12,Potency,[1],inactive
same,Potency,[2],"inconclusive: 0.118 µM [cytotoxic, full curve, poor fit]"
same,Potency,[5],"inconclusive: 14.8 µM [cytotoxic, partial curve, poor fit]"
same,Potency,[8],inactive
same,Potency,[4],inactive
same,max response,NIH3T3,inactive: 2.87% and inactive: -5.91%
CC(C)(Cc1ccc2ccccc2c1)NC[C@@H](O)COc1cccc(Cl)c1C#N,Potency,[2],inactive
same,Potency,[5],inconclusive: 0.001 µM [cytotoxic]
same,Potency,[6],inactive
same,Potency,[7],"inconclusive: 18.7 µM [falling, partial curve]"
same,max response,NIH3T3,inactive: -24.7%
CO[C@H]1C[C@@H]2CC[C@@H](C)[C@@](O)(O2)C(=O)C(=O)N2CCCC[C@@H]2C(=O)O[C@H]([C@H](C)C[C@@H]2CC[C@H](OC(=O)C(C)(CO)CO)[C@H](OC)C2)CC(=O)[C@H](C)C=C(C)[C@@H](O)[C@@H](OC)C(=O)[C@H](C)C[C@H](C)C=CC=CC=C1C,Potency,[1],"inconclusive: 37.2 µM [cytotoxic, partial curve, poor fit]"
same,Potency,[2],"inconclusive: 8.33 µM [cytotoxic, full curve]"
same,Potency,[3],"inconclusive: 18.7 µM [cytotoxic, partial curve]"
same,Potency,[5],"inconclusive: 37.2 µM [cytotoxic, single point]"
same,Potency,[8],"inconclusive: 29.6 µM [cytotoxic, single point]"
same,Potency,[6],"inconclusive: 37.2 µM [cytotoxic, single point]"
same,Potency,[4],"inconclusive: 29.6 µM [cytotoxic, single point]"
same,Potency,[7],inconclusive: 37.2 µM
O=c1c(O)c(-c2cc(O)c(O)c(O)c2)oc2cc(O)cc(O)c12,Potency,[1],inactive
same,Potency,[2],"inconclusive: 20.9 µM [cytotoxic, single point]"
same,Potency,[5],"inconclusive: 37.2 µM [cytotoxic, single point]"
same,Potency,[6],"inconclusive: 8.33 µM [cytotoxic, partial curve, poor fit]"
same,Potency,[4],"inconclusive: 2.64 µM [cytotoxic, partial curve, poor fit]"
